# Results: the supplement of paper PMC12009310
# Where a name gives a salt, the structure may show the parent alone. ± gives the standard deviation of the averaged measurements. The list shows a part of the results. Part of the spread comes from offsets between plates or batches.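 The cells are a mouse kidney inner medullary collecting duct line, silenced either for the ciliary gene Rpgrip1l or with a non-targeting control siRNA.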
# Test system: mIMCD3
# Assay: robust z score of cilia incidence (% cells with single cilium) vs plate controls; higher = more ciliated cells (rescue of cilia loss)
# Conditions: 10 µM; 48 h; siRNA: siRpgrip1l
row,SMILES,robust z score of cilia incidence
1,O=C1NN(C(=O)Nc2ccc(Br)cc2)[C@@H](c2ccccc2)[C@@H]1c1ccccc1,-236 ± 170
2,CCCCCCCC/C=C\CCCCCCCC(=O)NCc1ccc(O)c(OC)c1 [Olvanil],-28.4 ± 4.5
3,CCOC(=O)c1cnc2c(cnn2CC)c1NN=C(C)C [Etazolate hydrochloride],-5.32 ± 5.2
4,CC(C)[N+]1(C)[C@@H]2CC[C@H]1C[C@@H](OC(=O)C(CO)c1ccccc1)C2 (stereo partly specified) [Ipratropium bromide],-7.39 ± 0.68
5,O=C(Nc1ccccc1)N[C@@H]1C[C@@H](C(=O)O)Nc2cc(Cl)cc(Cl)c21,-3.73 ± 2.1
6,O=C(Nc1ccncc1)c1cc([N+](=O)[O-])ccc1Cl,-12 ± 8.4
7,CN=c1nc(-c2ccccc2)n(-c2ccccc2)s1,-19.5 ± 5.2
8,N[C@@H](Cc1cc(-c2ccc(Cl)cc2Cl)cc(CP(=O)(O)O)c1O)C(=O)O,-6.01 ± 3.6
9,Nc1ccc(-c2cccc3c(=O)cc(N4CCOCC4)oc23)cc1,-11.2 ± 4.9
10,Nc1nc2c(ccc3ccccc32)s1,-4.23 ± 0.43
11,Clc1ccc2c(c1)N=C(N1CCNCC1)c1ccccc1N2 [N-Desmethylclozapine],-22.3 ± 4
12,COc1cc(NC(=O)c2ccccn2)ccc1Cl,-11.9 ± 6
13,O=c1c(-c2ccc(O)cc2)coc2cc(O)cc(O)c12 [Genistein],-24.2 ± 1.8
14,CC(C)(Sc1ccc(CCN(CCCCC2CCCCC2)C(=O)NC2CCCCC2)cc1)C(=O)O,-119 ± 110
15,CCC(CC)(CC(=O)Nc1cccc(/C=C/c2nc(C3CCC3)cs2)c1)C(=O)O [Cinalukast],-12.4 ± 16
16,N#Cc1ccccc1OCC(O)CNCCNC(=O)Nc1ccccc1 (stereo unspecified),-7.14 ± 2

# Taken from above.
# Nc1nc2c(ccc3ccccc32)s1 – robust z score of cilia incidence: -4.23 ± 0.43
# O=C(Nc1ccncc1)c1cc([N+](=O)[O-])ccc1Cl – robust z score of cilia incidence: -12 ± 8.4
